# Assay results from article PMC10181192.
# Chains of the proteins cited; added tags and fusions are not shown. Residues count along the entry.
# UniProt Q63155, residues 26-1445: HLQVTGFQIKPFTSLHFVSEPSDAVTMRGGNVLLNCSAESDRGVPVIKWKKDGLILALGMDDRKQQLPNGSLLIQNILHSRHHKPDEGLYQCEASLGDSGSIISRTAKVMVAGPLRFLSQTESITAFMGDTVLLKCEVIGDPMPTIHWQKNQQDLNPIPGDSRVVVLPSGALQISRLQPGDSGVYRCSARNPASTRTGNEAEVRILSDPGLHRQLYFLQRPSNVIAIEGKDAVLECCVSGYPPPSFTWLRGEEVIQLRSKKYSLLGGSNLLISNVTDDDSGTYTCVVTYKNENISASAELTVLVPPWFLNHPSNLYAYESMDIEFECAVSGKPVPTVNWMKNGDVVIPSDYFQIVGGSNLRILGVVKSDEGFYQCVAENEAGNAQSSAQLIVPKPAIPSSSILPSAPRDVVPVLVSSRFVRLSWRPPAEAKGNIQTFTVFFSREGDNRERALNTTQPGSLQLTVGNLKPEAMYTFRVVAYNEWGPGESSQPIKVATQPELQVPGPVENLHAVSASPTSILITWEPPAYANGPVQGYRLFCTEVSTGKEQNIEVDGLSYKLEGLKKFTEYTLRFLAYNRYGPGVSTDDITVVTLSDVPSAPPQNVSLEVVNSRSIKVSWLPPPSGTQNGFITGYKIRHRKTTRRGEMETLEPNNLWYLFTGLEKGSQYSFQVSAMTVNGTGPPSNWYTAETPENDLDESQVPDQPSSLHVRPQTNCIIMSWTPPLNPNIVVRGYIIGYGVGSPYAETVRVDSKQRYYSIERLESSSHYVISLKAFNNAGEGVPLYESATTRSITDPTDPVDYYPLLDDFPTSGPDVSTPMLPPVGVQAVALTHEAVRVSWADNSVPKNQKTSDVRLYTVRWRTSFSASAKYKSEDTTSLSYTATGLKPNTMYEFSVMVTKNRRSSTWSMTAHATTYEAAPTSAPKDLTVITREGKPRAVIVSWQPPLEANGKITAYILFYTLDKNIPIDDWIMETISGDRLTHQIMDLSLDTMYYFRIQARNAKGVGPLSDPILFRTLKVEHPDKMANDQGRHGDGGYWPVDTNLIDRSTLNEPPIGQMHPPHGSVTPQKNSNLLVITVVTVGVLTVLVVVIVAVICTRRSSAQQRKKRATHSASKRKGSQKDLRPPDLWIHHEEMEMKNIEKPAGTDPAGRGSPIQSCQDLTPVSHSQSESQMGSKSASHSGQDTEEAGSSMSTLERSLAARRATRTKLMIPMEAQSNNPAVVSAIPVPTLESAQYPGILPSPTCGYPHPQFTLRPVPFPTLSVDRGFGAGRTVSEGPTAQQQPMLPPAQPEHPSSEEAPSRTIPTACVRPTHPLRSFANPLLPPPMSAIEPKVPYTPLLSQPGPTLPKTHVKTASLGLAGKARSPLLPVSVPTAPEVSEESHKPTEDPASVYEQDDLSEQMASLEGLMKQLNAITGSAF
# These are yes or no findings as the source states them, for the method shown. In cells and extracts the contact can be indirect. Some entries that bind do so weakly or less than the wild type.
# Columns and labels:
# [1] = biological target: endogenous Dcc (rat (endogenous in commissural neurons)) (UniProt Q63155); test: co-IP; endogenous proteins; rat commissural neuron lysate in SLB buffer (10 mM tris pH 8, 150 mM NaCl, 0.5% Igepal); IP with anti-DCC antibody or IgG control, protein A/G-agarose, 3 hours; Western blot
# [2] = biological target: endogenous Dcc (rat (endogenous in commissural neurons)) (UniProt Q63155); test: proximity ligation; endogenous proteins in fixed dissociated rat commissural neurons treated with BSA or Netrin-1 (0.1 μg/ml) for 2 or 5 min; antibodies against DCC and ARHGEF7 or GIT1; Duolink in situ PLA kit
Binder,binding [1],binding [2]
"endogenous Arhgef7 (protein, UniProt O55043 1-646) MTDNANSQLVVRAKFNFQQTNEDELSFSKGDVIHVTRVEEGGWWEGTHNGRTGWFPSNYVREIKPSEKPVSPKSGTLKSPPKGFDTTAINKSYYNVVLQNILETEHEYSKELQSVLSTYLWPLQTSEKLSSANTSYLMGNLEEISSFQQVLVQSLEECTKSPEAQQRVGGCFLSLMPQMRTLYLAYCANHPSAVSVLTEHSEDLGEFMETKGASSPGILVLTTGLSKPFMRLDKYPTLLKELERHMEDYHPDRQDIQKSMTAFKNLSAQCQEVRKRKELELQILTEPIRSWEGDDIKTLGSVTYMSQVTIQCAGSEEKNERYLLLFPNLLLMLSASPRMSGFIYQGKLPTTGMTITKLEDSENHRNAFEISGSMIERILVSCNNQQDLHEWVEHLQRQTKVTSVSNPTIKPHSVPSHTLPSHPLTPSSKHADSKPVALTPAYHTLPHPSHHGTPHTTISWGPLEPPKTPKPWSLSCLRPAPPLRPSAALCYKEDLSRSPKTMKKLLPKRKPERKPSDEEFAVRKSTAALEEDAQILKVIEAYCTSAKTRQTLNSSSRKESAPQVLLPEEEKIIVEETKSNGQTVIEEKSLVDTVYALKDEVQELRQDNKKMKKSLEEEQRARKDLEKLVRKVLKNMNDPAWDETNL",binds,binds
"endogenous Git1 (protein, UniProt Q9Z272 1-770) MSRKGPRAEVCADCSAPDPGWASISRGVLVCDECCSVHRSLGRHISIVKHLRHSAWPPTLLQMVHTLASNGANSIWEHSLLDPAQVQSGRRKANPQDKVHPIKSEFIRAKYQMLAFVHKLPCRDDDGVTAKDLSKQLHSSVRTGNLETCLRLLSLGAQANFFHPEKGTTPLHVAAKAGQTLQAELLVVYGADPGSPDVNGRTPIDYARQAGHHELAERLVECQYELTDRLAFYLCGRKPDHKNGHYIIPQMADRSRQKCMSQSLDLSELAKAAKKKLQALSNRLFEELAMDVYDEVDRRENDAVWLATQNHSTLVTERSAVPFLPVNPEYSATRNQGRQKLARFNAREFATLIIDILSEAKRRQQGKSLSSPTDNLELSARNQSDLDDQHDYDSVASDEDTDQEPLPSAGATRNNRARSMDSSDLSDGAVTLQEYLELKKALATSEAKVQQLMKVNSSLSDELRKLQREIHKLQAENLQLRQPPGPVPVPSLPSERAEHTLMGPGGSTHRRDRQAFSMYEPGSALKPFGGAPGDELATRLQPFHSTELEDDAIYSVHVPAGLYRIRKGVSASSVTFTPSSPLLSSSQEGSRHASKLSRHGSGAESDYENTQSGEPLLGLEGKRFLELSKEDELHAELESLDGDPDPGLPSTEDVILKTEQVTKNIQELLRAAQEFKHDSFVPCSEKIHLAVTEMASLFPKRPALEPVRSSLRLLNASAYRLQSECRKTVPPEPGAPVDFQLLTQQVIQCAYDIAKAAKQLVTITTREKKQ",binds,binds
